# Laboratory results as given in paper PMC7819943, “Rice protein-binding microarrays: a tool to detect cis-acting elements near promoter regions in rice”.
# The chains behind the UniProt entries cited, without tags or fusion partners.
# UniProt Q0JBA9, entry or part of it: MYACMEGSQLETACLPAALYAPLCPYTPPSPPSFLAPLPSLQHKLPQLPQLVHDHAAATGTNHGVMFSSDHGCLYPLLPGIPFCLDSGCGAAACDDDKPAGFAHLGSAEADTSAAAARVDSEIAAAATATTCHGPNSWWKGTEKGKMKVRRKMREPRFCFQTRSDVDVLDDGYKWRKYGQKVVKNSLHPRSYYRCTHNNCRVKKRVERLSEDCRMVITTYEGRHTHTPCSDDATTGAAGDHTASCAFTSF
# Some of the results follow.
# Target: OsWRKY34 (Oryza sativa, UniProt Q0JBA9 1-250)
# Assay: protein-binding microarray (RPBM); PBS, 2% BSA, 51.3 ng/ul salmon testes DNA, 50 uM zinc acetate, 200 nM TF, 25 C, 1 h; high values mean tight binding
# Conditions: protein: recombinant; tags: N-terminal polyhistidine and DsRed monomer fusion (pET32a); label: CyDye5-dUTP incorporated in the synthesized complementary strand; 3' TTTTT single-stranded linker to array surface; dsDNA, one strand shown
# Summary of the method: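 Transcription factors were each fused at the N-terminus to a polyhistidine tag plus DsRed and expressed in E. coli BL21-CodonPlus before Ni–NTA purification. Binding to a double-stranded custom Agilent array was carried out with 200 nM protein at 25 °C for 1 h in PBS, 2% BSA, salmon testes DNA and 50 µM zinc acetate. The binding signal is per-feature fluorescence intensity, in arbitrary units, on an Axon 4000B scanner.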
row,Sequence,binding signal
1,CGATCTATATAAACCACATGCATATGCCTGATTTTTCTTCCGGAGTCACCTAGTGCAG,9240 fluorescence intensity (a.u.)
2,AAACCCATTCCCACAATCCATCCACAATTATACATAAATACGGAGTCACCTAGTGCAG,11600 fluorescence intensity (a.u.)
3,ATTCACTTTTGGGCCTGTTCAAGGGAAACTCTTTTAATCACGGAGTCACCTAGTGCAG,8680 fluorescence intensity (a.u.)
4,CACTGCCCGCCCGCCCCGCGCTGCTGCCGCCGCCTCCTGGCGGAGTCACCTAGTGCAG,9480 fluorescence intensity (a.u.)
5,TACCTGTCTACGATTTGCCACTGACTTTATCACGTTCTACCGGAGTCACCTAGTGCAG,10500 fluorescence intensity (a.u.)
6,CATGTGTAACCATTGCTCTTTACCCAAACAGCATTTGTCTCGGAGTCACCTAGTGCAG,9400 fluorescence intensity (a.u.)
7,TCCCATCCCATTCCGTTGCGAAATTTTTGCGAGCTCGCGACGGAGTCACCTAGTGCAG,8790 fluorescence intensity (a.u.)
8,GTATTCCGATAAATTTTCGTTATCGTATCCGTGCCGGTTCCGGAGTCACCTAGTGCAG,11300 fluorescence intensity (a.u.)
9,ATTCTCATGCTACTCTTGCACAAACCCTAGCTCATATGGTCGGAGTCACCTAGTGCAG,12200 fluorescence intensity (a.u.)
10,GTACTTGTTTCTCTCTGTTTCAGTACGGTTCTGGGCCGAACGGAGTCACCTAGTGCAG,10100 fluorescence intensity (a.u.)
11,TGCAGTGCGGCGTCACCTATCTCGTGGGCGCTTTCTTAGACGGAGTCACCTAGTGCAG,9080 fluorescence intensity (a.u.)
12,AGACAAAATAAGTTTCTTACTCTTACTCTCTCAGTTTCAACGGAGTCACCTAGTGCAG,8470 fluorescence intensity (a.u.)
13,ACTTGCTGACCCCTCGTCCTCGTCATCGTCCGCCCTATGTCGGAGTCACCTAGTGCAG,9960 fluorescence intensity (a.u.)
14,GGCAAGAACCGAAACACGTCCCTTTCATTGTGCCACACTCCGGAGTCACCTAGTGCAG,9380 fluorescence intensity (a.u.)
15,TATCTTCTCTTATTTCAACGCTGTTTCCTTCTCTTTGTTTCGGAGTCACCTAGTGCAG,10400 fluorescence intensity (a.u.)
16,TCTTTTCTTTTCTTTTCTTTTTTCCTTTCCCATCCACTACCGGAGTCACCTAGTGCAG,8730 fluorescence intensity (a.u.)
17,TCTCCGCCAACCATCCCGCCACGTCAACCACCTTTCCATCCGGAGTCACCTAGTGCAG,11000 fluorescence intensity (a.u.)
18,CGTAGCTGTGTTTGTAGCGTAATTGCGTAAAGTCCTTTCACGGAGTCACCTAGTGCAG,8180 fluorescence intensity (a.u.)
19,CCACACCAATAGCACAACCGGCAAACAATTCCTCTGCTCGCGGAGTCACCTAGTGCAG,8510 fluorescence intensity (a.u.)
20,GTTTCCCAGCACCTCTCGCTCGGTTCGTCGTCGCCCGCCCCGGAGTCACCTAGTGCAG,8140 fluorescence intensity (a.u.)
21,CCCTCTTGCTGTAGGGTGATCTCGTCTGTGTTCCCTTGTTCGGAGTCACCTAGTGCAG,12000 fluorescence intensity (a.u.)
22,GTCCTCTCCCATCTTGCTTCTTCTGATTACGCGGCGAAACCGGAGTCACCTAGTGCAG,9560 fluorescence intensity (a.u.)
23,GAGTCGCGCACACACCTCGACTCCTCGCTCGCTTCACTCCCGGAGTCACCTAGTGCAG,9340 fluorescence intensity (a.u.)
24,TTTAATTTACCCATTGATCTAGCTCGCGATATATATGATCCGGAGTCACCTAGTGCAG,8640 fluorescence intensity (a.u.)
25,GTTATAGATACTTTACATGCCAGATCTTCTGCTACTCACACGGAGTCACCTAGTGCAG,8430 fluorescence intensity (a.u.)
26,AAAAATGGCGTTTTCTCTCCATTTTCCACGTCATCATGGTCGGAGTCACCTAGTGCAG,9470 fluorescence intensity (a.u.)
27,ATCCCTACCAATGAGTTAACTCACTTTTATTGGTACATATCGGAGTCACCTAGTGCAG,8370 fluorescence intensity (a.u.)

# Single values from the list.
# GTACTTGTTTCTCTCTGTTTCAGTACGGTTCTGGGCCGAACGGAGTCACCTAGTGCAG – binding signal: 10100 fluorescence intensity (a.u.)
# GAGTCGCGCACACACCTCGACTCCTCGCTCGCTTCACTCCCGGAGTCACCTAGTGCAG – binding signal: 9340 fluorescence intensity (a.u.)

# More entries:

row,Sequence,binding signal
1,CTCACGCGCTGCACCGCCGATACCCCACCCGCTGCTAGTTCGGAGTCACCTAGTGCAG,8670 fluorescence intensity (a.u.)
2,TAATAGTTGGTCACGTCATATCCATTGCATGCAGCTCATCCGGAGTCACCTAGTGCAG,9730 fluorescence intensity (a.u.)
3,TAATTACCTCTCTTTAGTTTTGGGGTATGTGTGCTTGGTTCGGAGTCACCTAGTGCAG,9680 fluorescence intensity (a.u.)
4,GAAGGGATTGGGTGAAATTACAGGGGCATGTAGGTAATTGCGGAGTCACCTAGTGCAG,10000 fluorescence intensity (a.u.)
5,AAACATGTGCTAAAAAGTCAACGGTGTCAAATATTTCGAACGGAGTCACCTAGTGCAG,15600 fluorescence intensity (a.u.)
6,ACTCCTCTCTCTGCTTCGTTTTCATCTTCAGGGCAATGGCCGGAGTCACCTAGTGCAG,10100 fluorescence intensity (a.u.)
7,TTTTTCTTATGTTTTGTAATAATCTGTTTTGCACACGCATCGGAGTCACCTAGTGCAG,8740 fluorescence intensity (a.u.)
8,ATGTCTTTTGGTGGGTGAGAAATTATTTCCTTAACCCATTCGGAGTCACCTAGTGCAG,8890 fluorescence intensity (a.u.)
9,CATCTGAGTACCTCACATGTTGAACATCTCCCTGTACTTACGGAGTCACCTAGTGCAG,8980 fluorescence intensity (a.u.)
10,TACTTCTCGTTTTTTCTTTATCTTTTACTTTCACATAAATCGGAGTCACCTAGTGCAG,9950 fluorescence intensity (a.u.)
11,TTTTCTTTTTTGCCTTTGTTTGTCCCATTTTTGTTGGGTTCGGAGTCACCTAGTGCAG,12600 fluorescence intensity (a.u.)
12,ATTCCTATATTTTTCCTATGTTTTGTAATCCTCTGTTTTACGGAGTCACCTAGTGCAG,12600 fluorescence intensity (a.u.)
13,TGTGTGTTATGAGTAGCTTGTGGTATGGATTCTTCTGAAGCGGAGTCACCTAGTGCAG,9960 fluorescence intensity (a.u.)
14,AACCTTGTACTGTGCCATCTTGTGCAATGCCATTGATGTTCGGAGTCACCTAGTGCAG,9180 fluorescence intensity (a.u.)
15,ACCCAAAATTTTCTTTTCGCGAACTAAACAGGCCCTTAATCGGAGTCACCTAGTGCAG,9000 fluorescence intensity (a.u.)
16,GCGCGCCAACTAACGTACACCCACCCGCTCATCTATATAACGGAGTCACCTAGTGCAG,9170 fluorescence intensity (a.u.)
17,TTTTGCGGGATTTCTTGGCCTTTGTGTCTGGGATTCGTGGCGGAGTCACCTAGTGCAG,9430 fluorescence intensity (a.u.)
18,GAAAGCGAGCAAGCAGCATCTCTCTTTGTTCTTTTCTTAACGGAGTCACCTAGTGCAG,9390 fluorescence intensity (a.u.)
19,CCGTTCTCTCATCTCTGCTTTCCAGTGCTTCCATCAACAACGGAGTCACCTAGTGCAG,8740 fluorescence intensity (a.u.)
20,TTCTCGAAAATCCTAGCTGCCTGCAAGTTTTCTTTCTTTGCGGAGTCACCTAGTGCAG,8710 fluorescence intensity (a.u.)
21,TCGACGGCGCCACCACAATCGTGGTCCACCGTGACAAGCCCGGAGTCACCTAGTGCAG,8840 fluorescence intensity (a.u.)
22,GCCATCCTCCGCGACGCACATCGTCCGTCCCACCACGATGCGGAGTCACCTAGTGCAG,10400 fluorescence intensity (a.u.)
23,CAAACGATCACCATAGTTGTCATCCTCTGTCACCATAGTTCGGAGTCACCTAGTGCAG,8360 fluorescence intensity (a.u.)
24,CTAGGGAGTGACGGCGGAGGTGGTGGGGTCAAGTTCAAGACGGAGTCACCTAGTGCAG,10700 fluorescence intensity (a.u.)
25,AGTATTTTTTCCCATCTGGTCAATTGATGTATCGAATCTTCGGAGTCACCTAGTGCAG,8080 fluorescence intensity (a.u.)
26,GATCACCTCAGAGCTGGCTGCCCTATTTGTTTTTGCAGCCCGGAGTCACCTAGTGCAG,10100 fluorescence intensity (a.u.)
27,GCTCCCATGATGCGCTCTCGCCGCCTCGCCATGTGACCCGCGGAGTCACCTAGTGCAG,8810 fluorescence intensity (a.u.)
